For experiment [1], the target named is PfGCN5-ΔBrD::GFP (P. falciparum 3D7). Nature of the experiment: affinity purification with mass spectrometry; IP with GFP-Trap from trophozoite nuclear extracts of the PfGCN5::GFP, GCN5-ΔBrD::GFP and PHD1-ΔPHD::GFP lines; LC-MS/MS; SAINT probability >94%, FDR <1%.
In experiment [2] the target is PfPHD1-ΔPHD::GFP (P. falciparum 3D7). The experiment is described as above.

Results are given in words; binding and its absence hold for the method and conditions named. In cells and extracts the contact can be indirect. These calls come from enrichment with a bait or labelling near it, and not all partners need be listed. For some assays here: A no says only that the protein was not detected with the bait.

B1: PF3D7_1019700 (protein, UniProt Q8IJK5 1-1074)
chain: MYKSERHKDITHSNRTKRNEQKNSDILNKVSNEKCLENNTNESLCNKMDNCINKQNNINRQNDINRQNDINSQNSVGSQNNRNHKKCVNKSRQKYNKIERKKKKNASSLLGDNCVQETEDTHHEKSLNDDCLNMEQNKEIVNDHLKEIEKKNSDNEIKADINDEKLQLERDYVIEAADQNKDALTLCVCVEDDRKKYVTKEKVNEKDMKGDNNEKDMEYDNNKKDMEYDQDEKDMEYDQDVKDIEGDNNKKDMEDDKNEKDMENDNNKKDMEGDQDKKDMEGDQDKKDMEGDNNKKDMEGDKNEKDMEGDNNKKDMEGDKNEKDMEGDNNKKDMEGDKNEKDMEGDNNKKDMEGDNNKKDMEGDKDAKDIICDNNITLKNKIPINNLNDNNIVCNYKHRDTIEEADNNYVVENITQVNNIDEIKLKRKRKRKNNFSEYIQEEREDNFIKDKNYNALKTLKDSKRILLNCNKYIEDNNMYKIEDNVQNNNVCGNLLCEEKCNNYRQIDKNEKYEKNEKNDKYDKYEKYDKYENYDKYEKYDKYEKYDKYENYDKYEKYDKYEKYDKYEKYDKYEKYDKYEKNDDSRKDNIDICNKINLPRVYDNIIQSDSNNLNKYKGSSFALIIHEISDLLSLITTVDKSKNKNKIKLVNIGHKLNTLMRSHYERIYDCDNSLVSIINKIKKLYKCYRSMEEKYLKKTKKQNINININTNTNTNTNTNKIEKENVAGNNDEEDPNDGINILHDDLLKEEINNIDNNIKNDINKYTIKCNNNNEKLIQDPFFQNEFVQGIDNYINQKDENNCHDNIKDKIDTLNCYINEKLNMDCQNIFIQKGDYKKVLNQMGEKAIYEGNEKDNHKGNNTMEHIKINDDNKTMEHIKINDENKTMEHIKINDENNTMEHIKINDENNTMEHIKINDENKTMEHIKINDENKTMEHININDENNTMEHIKINDENKTMEHININDENNTMEHIKINDENNTMEHINKSIIKNIGSMESKSTAVTYKECELSLKEEKEEYIEYLKKKKKILKELDKCNSHFFFTYFHKGELIEYLHNQINMHIVEFDKIYQLYISH
On to B1, for which the figures for the binding entry in experiment [1] and in experiment [2] were “binds” and “no binding”, respectively.

Values taken from PMC8396726.
